Values from PubChem BioAssay AID504808 (Drosophila RNAi Screening Center, 2011).

- Purpose: 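Genes whose loss lifts activity of an E2F-responsive reporter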 (primary screen)
- Cells: Drosophila S2 cells
- Reagent: long dsRNA against Drosophila genes
- Detection: 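Dual luciferase plate measurements; E2F-specific signal taken as firefly over Renilla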
- Direction: E2F firefly: higher = more E2F reporter activity; Renilla normaliser: higher = more normaliser reporter signal
- Call rule: 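Called active if the normalised E2F reporter went up by over 50%; the cutoff is arbitrary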
The screen tested about 21,000 reagents; below is an unselected part of those with a known target gene and a result. In the full data, 18 (0.084%) were called active. 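Raw counts without plate normalisation, one of two replicates; the ratio scores behind the calls were not deposited.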 A number with no mark means an inactive call. Reagents against one gene are numbered here. Names joined by + are all predicted targets of the reagent. Not given: the amount of reagent, the time to read-out.

no.	predicted target	reagent	E2F firefly, rep 1	Renilla normaliser, rep 1
1	Glut3 (GeneID 42036)	1	1.18e5	5794
2	lncRNA:CR42862 + CG33229	1	85995	3684
3	naz (GeneID 42204)	1	1.43e5	8535
4	naz (GeneID 42204)	2	1.49e5	7821
5	CG7943 (GeneID 43574)	1	1879	1008
6	CG30154 (GeneID 246487)	1	1.79e5	5802
7	Obp56a (GeneID 37264)	1	1.35e5	5593
8	CG7304 (GeneID 39713)	1	1.61e5	9106
9	CG4766 (GeneID 31533)	1	1.19e5	6123
10	Polr3E (GeneID 40325)	1	1.24e5	7131
11	CG11594 (GeneID 38473)	1	77302	3943
12	Gr8a (GeneID 31865)	1	1.30e5	5549
13	cact (GeneID 34969)	1	59130	2879
14	Prim1 (GeneID 38942)	1	97155	3695
15	ihog (GeneID 33972)	1	96239	4184
16	CG9825 (GeneID 37624)	1	1.08e5	4846
17	CG12780 (GeneID 35834)	1	1.37e5	4444
18	Lcp65Aa (GeneID 38709)	1	1.09e5	3989
19	Acbp4 (GeneID 38781)	1	1.01e5	3561
20	CG14546 (GeneID 43142)	1	1.13e5	5931
21	Lint-O (GeneID 31254)	1	1.53e5	5702
22	Burs (GeneID 42560)	1	1.26e5	8602
23	RpS9 (GeneID 39108)	1	57368	3489
24	stnB + stnA	1	61654	3805
25	stnB + stnA	2	77555	4665
26	stnB + stnA	3	1.34e5	7007
27	mRpL21 (GeneID 40091)	1	1.32e5	7548
28	OdsH (GeneID 32758)	1	1.54e5	6574
29	Smn (GeneID 39844)	1	81674	3929
30	wupA (GeneID 32794)	1	2.37e5	7824
31	Mst57Dc (GeneID 43121)	1	1.23e5	6899
32	CG3402 (GeneID 38077)	1	83520	3505
33	CG13131 (GeneID 34334)	1	1.56e5	5752
34	bin3 (GeneID 35552)	1	1.44e5	4769
35	CG18659 (GeneID 35929)	1	1.47e5	4878
36	CG6333 (GeneID 39953)	1	1.93e5	10246
37	Pex1 (GeneID 45460)	1	74087	3635
38	DCTN1-p150 (GeneID 39536)	1	80567	3462
39	Erasp (GeneID 246448)	1	70395	3128
40	RpL10Ab (GeneID 39338)	1	56603	6180
41	CG42821 + CG42822	1	76891	2646
42	CG42821 + CG42822	2	78069	2340
43	Hsp67Ba (GeneID 39076)	1	1.06e5	5762
44	CG18095 (GeneID 34823)	1	1.03e5	4382
45	CG13003 (GeneID 32675)	1	1.64e5	6505
46	CkIIbeta2 (GeneID 37300)	1	1.54e5	5354
47	CG1850 (GeneID 35647)	1	1.48e5	5560
48	Ude (GeneID 42953)	1	72428	3058
49	ppk19 (GeneID 43489)	1	1.30e5	7347
50	Gs1l (GeneID 33653)	1	1.61e5	5501
51	CG4983 (GeneID 34585)	1	74579	3293
52	CG13321 (GeneID 36430)	1	1.07e5	3748
53	CG13031 (GeneID 39867)	1	1.75e5	9219
54	CG17746 (GeneID 38400)	1	68677	3876
55	yellow-e (GeneID 41653)	1	88499	2329
56	yellow-e (GeneID 41653)	2	1.18e5	5747
57	CG32845 (GeneID 318243)	1	1.24e5	4320
58	CG15219 (GeneID 49992)	1	99226	3978
59	CG7879 (GeneID 38184)	1	65326	3384
60	CG10936 (GeneID 37000)	1	1.61e5	7291
61	CG10936 (GeneID 37000)	2	1.54e5	6999
62	CG10936 (GeneID 37000)	3	1.51e5	5542
63	CG30046 (GeneID 36334)	1	99764	4792
64	prt (GeneID 117368)	1	1.07e5	5336
65	sdt (GeneID 44861)	1	68185	1825
66	sdt (GeneID 44861)	2	93529	2462
67	sdt (GeneID 44861)	3	1.13e5	5880
68	sdt (GeneID 44861)	4	52971	3947
69	sdt (GeneID 44861)	5	1.07e5	5006
70	sdt (GeneID 44861)	6	27067	3008
71	sdt (GeneID 44861)	7	31385	3644
72	sdt (GeneID 44861)	8	56792	4395
73	sdt (GeneID 44861)	9	1.52e5	6912
74	Pdk (GeneID 35970)	1	2879	205
75	St2 (GeneID 41098)	1	1.30e5	5802
76	danr (GeneID 43020)	1	1.16e5	6222
77	RhoL (GeneID 41136)	1	66123	3542
78	CG9643 (GeneID 33504)	1	1.47e5	5606
79	CG1537 (GeneID 32037)	1	1.34e5	7436
80	Zmynd10 (GeneID 39481)	1	1.34e5	6297
81	Cyp9f3 (GeneID 3772405)	1	1.63e5	7336
82	Dgp-1 (GeneID 37080)	1	1.51e5	4905
83	Rad51D (GeneID 35937)	1	1.37e5	4730
84	CG15283 (GeneID 50454)	1	1.01e5	3963
